This is one part of the list. These are raw signals, not scaled to a control.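 First-pass screen: polymyxin B was added at a level that permeabilizes the Salmonella outer membrane while sparing the inner membrane. DMSO wells, with and without polymyxin B, defined maximum growth. Because plates differed from one another, each plate's data were ranked separately and the compounds with the lowest OD600 were carried forward as hits.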
Test system: Salmonella enterica serovar Typhimurium SL1344
Experiment: bacterial growth OD600 after 18 h with compound and polymyxin B; higher = more bacterial growth (less inhibition)
Conditions: 50 µM, Mueller-Hinton broth

Structure (SMILES)	bacterial growth OD600 (polymyxin B 1 µg/mL)	bacterial growth OD600 (polymyxin B 0.75 µg/mL)
CCN(CCn1cccn1)Cc1nc(-c2ccc(C(=O)OC)cc2)oc1C	0.814	
O=C(NCCCCCN1CCOCC1)C1CCC(=O)N(C2CCCC2)C1 (stereo unspecified)	0.953	
Cc1cccc(CC(=O)NCC2Cc3cc(-c4nc(C)cnc4C)ccc3O2)c1 (stereo unspecified)		0.849
COc1cccc(CN2CCCC3(CCN(Cc4cnc(OC)nc4)C3)C2=O)c1 (stereo unspecified)	0.785	
CCC1CN(CCNC(=O)C(C)n2cncn2)Cc2cc(OC)ccc2O1 (stereo unspecified)		0.841
CC(C)CN1CCC(CNc2nncc(-c3ccccc3F)n2)CC1		0.692
COCCN1C(=O)CC(CC(=O)NCCc2ccc(OC)c(OC)c2)(c2ccccc2C)C1=O (stereo unspecified)		0.862
CC(NC(=O)C1CC(Cc2ccc3c(c2)OCO3)=NO1)c1cnn(-c2ccccc2)c1 (stereo unspecified)		0.72
O=C(C1CCCC1)N1CCc2[nH]nc(-c3ccc(Cl)cc3)c2C1		0.891
CCS(=O)(=O)c1ncc(CN(C)CCOC)n1CCc1ccccc1	1.22	
CCOCCCNC(=O)C1CCC(=O)N(CCc2cccc(F)c2)C1 (stereo unspecified)	1.03	
COCCNC(=O)c1ccc(OC)cc1OC1CCN(Cc2ccccc2Cl)CC1	1.16	
Cc1n[nH]c(C)c1CNC(=O)CC(c1cccc(Cl)c1)c1ccccc1O (stereo unspecified)	0.888	
COc1ccc(F)c(CC2(CCC(=O)NCCc3ccc(F)cc3)CCC(=O)N2)c1 (stereo unspecified)		0.821
Cc1cccc(C)c1Oc1ncccc1CNC(=O)Cc1ccc2c(c1)OCO2	0.826	
COc1cc(CN2CCC(Oc3cc(C(=O)NC4CC4)ccc3OC)CC2)cc(OC)c1	0.933	

Shown with bars between the fields: two of the compounds above
Structure (SMILES) | bacterial growth OD600 (polymyxin B 1 µg/mL) | bacterial growth OD600 (polymyxin B 0.75 µg/mL)
O=C(C1CCCC1)N1CCc2[nH]nc(-c3ccc(Cl)cc3)c2C1 |  | 0.891
CCS(=O)(=O)c1ncc(CN(C)CCOC)n1CCc1ccccc1 | 1.22 | 

Carrying on.

Structure (SMILES)	bacterial growth OD600 (polymyxin B 1 µg/mL)	bacterial growth OD600 (polymyxin B 0.75 µg/mL)
NC(=O)[C@@H]1CCCN1C(=O)CC1c2ccccc2CCc2ccccc21		0.963
C=C(C)CN(C)Cc1cnc(S(=O)(=O)Cc2ccccc2)n1CC(C)C	0.013	
COCCN1C(=O)CC(CC(=O)N2CCCC(C)C2)(c2ccccc2F)C1=O (stereo unspecified)		0.742
COc1ccc(-c2nn(-c3ccccc3C)cc2CN(C)Cc2cnccn2)cc1F	0.002	
COCCO[C@H]1[C@H](NC(=O)C(C)C)c2ccccc2C12CCN(Cc1ccccn1)CC2		0.851
CO[C@H]1[C@H](NC(=O)c2ccncc2)c2ccccc2C12CCN(C(=O)CCN1CCCCC1=O)CC2		0.747
COc1ccc(CCN2CCCC(CN(C)C(=O)c3cnn(C(C)C)c3)C2)cc1 (stereo unspecified)		0.883
COc1ccccc1OCc1cc(C(=O)N(C)Cc2cc(C)[nH]n2)n[nH]1	1.07	
COc1ccc([C@@H](C)NC(=O)c2coc(COc3cccc(F)c3)n2)cc1		0.587
O=C(Nc1ccnn1C1CCN(Cc2nc3c(s2)CCCC3)CC1)C1CC1	0.975	
CC(=O)c1cc(CN2CCC(C3CCN(c4ncccn4)CC3)C2)cs1 (stereo unspecified)		0.812
O=C(C1CCCC1)N1CCC2(CCCN(Cc3cccc(F)c3F)C2)C1 (stereo unspecified)	0.238	
CN(Cc1cccc(C(F)(F)F)c1)C(=O)c1cn(CC2CCCO2)nn1 (stereo unspecified)	1.05	
Cc1cccnc1N1CCC(C2CCN(c3ncccn3)CC2)C1 (stereo unspecified)		0.53
COc1ccc(CCC(=O)NCCN2Cc3ccccc3OC(c3ccccc3F)C2)cc1OC (stereo unspecified)		0.711

Source: the supplement of paper PMC12889115
